Where a name gives a salt, the structure may show the parent alone. The list shows a part of the results. This data set is noisy: repeats of one test often differ as much as different tests do.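 A first-round screen of about ten thousand compounds sought those raising reporter output, using human embryonic kidney cells briefly transfected with a plasmid carrying a Renilla luciferase gene driven by the HSV-TK promoter.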
test system: HEK 293FT; assay: log relative Renilla luciferase luminescence (reporter expression vs reference, reference not stated) (log (base not stated)); higher = higher recombinant reporter expression; settings: 10 µM; time after transfection 48 h

SMILES | log
Cc1cccc(C)c1NC(=O)C[N+](C)(C)C | -0.141
COc1cc(SC)ccc1C(=O)N1CCC(Cc2ccccc2)CC1 | -0.051
CC(C)NC[C@@H](O)COc1cccc2ccccc12 [(R)-(+)-Propranolol hydrochloride] | 0.0967
N[C@@H](CC(=O)Nc1ccc(Oc2cc(F)c(F)cc2Br)cc1)C(=O)O | -0.0566
COc1cccc(NC(=O)/C=C/c2ccc(Cl)cc2)c1 | -0.0919
CN1CCC(Nc2ncc3ncnc(Nc4ccc(F)c(Cl)c4)c3n2)CC1 [BIBX 1382 dihydrochloride] | -0.0223
COc1ccc(-n2[nH]c3c4c(ncc3c2=O)CCCCC4)cc1 | -0.0739
COc1cccc2c1C(=O)c1c(O)c3c(c(O)c1C2=O)C[C@@](O)(C(=O)CO)C[C@@H]3O[C@H]1C[C@H](N)[C@H](O)[C@H](C)O1 [Doxorubicin hydrochloride] | -0.984
O=C(Nc1ccc([N+](=O)[O-])cc1O)Nc1ccccc1Br | -0.0307
O=C(O)Cc1nn(Cc2ccc(Br)cc2F)c(=O)c2ccccc12 [Statil] | 0.0419
CCC(=O)NC[C@H](Cc1ccc(OCCc2nc(-c3ccccc3)oc2C)cc1)N/C(C)=C\C(=O)c1ccc(C(F)(F)F)cc1 | -0.132
CCn1c(=O)n(C2=C(CO)CN(CC3CCCCCCC3)CC2)c2ccccc21 | -0.0858
O/N=C/c1ccc(-c2ccc(O)c(F)c2)c(Cl)c1O | 0.007
Cc1cc(NC(=O)Nc2ccc(N(C)C)cc2)c2cc(F)cc(F)c2n1 | 0.00349
Clc1ccc2c(c1)N=C(N1CCNCC1)c1ccccc1N2 [N-Desmethylclozapine] | 0.14
Nc1nc(Cl)nc2c1ncn2[C@@H]1O[C@H](CO)[C@@H](O)[C@@H]1F [Clofarabine] | -1.02
Cn1ccc2cc(NC(=O)Nc3cccnc3)ccc21 | 0.126
CN1CCN(C(=O)c2nc3ccc(Cl)cc3[nH]2)CC1 | -0.012
CC(C)N(CCC(=O)c1ccc2ccccc2c1)Cc1ccccc1 | -0.0512
Cc1ccc(S(=O)(=O)/C=C/C#N)cc1 | 0.0127

In another format: two of the compounds above.
SMILES	log
Nc1nc(Cl)nc2c1ncn2[C@@H]1O[C@H](CO)[C@@H](O)[C@@H]1F [Clofarabine]	-1.02
Cn1ccc2cc(NC(=O)Nc3cccnc3)ccc21	0.126

Continued:

SMILES | log
COc1ccc(CCN(C)CCc2ccc(OC)c(OC)c2)cc1OC [YS-035 hydrochloride] | 0.118
Fc1ccc([C@@H]2CCNC[C@H]2COc2ccc3c(c2)OCO3)cc1 [Paroxetine maleate] | -0.0358
CC[N+](CC)(CC)CC(=O)Nc1c(C)cccc1C [QX 314 bromide] | 0.119
CN(C)C/C=C(/c1ccc(Br)cc1)c1cccnc1 [Zimelidine dihydrochloride] | -0.497
CCCCN1CCC(CCC(=O)c2cc(Cl)c(N)cc2OC)CC1 | 0.144
CCO/C(O)=C1\C(C)=NC(c2ccccc2)=C(C(=O)OCc2ccc([N+](=O)[O-])cc2)C1C#Cc1ccccc1 (stereo not given) | 0.103
CC(C)(Sc1ccc(CCN(CCCCC2CCCCC2)C(=O)NC2CCCCC2)cc1)C(=O)O | -0.012
Oc1cc2c(cc1O)C(c1ccccc1)CNCC2 (stereo not given) | 0.088
CN=c1nc(-c2ccccc2)n(-c2ccccc2)s1 | 0.0738
N#C/C(=C\c1ccc(O)c(O)c1)C(=O)OCCc1cccs1 | 0.0863
CC(C)[C@H](CO)Nc1nc(Nc2ccc(C(=O)O)c(Cl)c2)c2ncn(C(C)C)c2n1 [Purvalanol B] | 0.0127
CN(C)c1nc(N)c(C(=O)Nc2cccnc2)nc1Cl [ACDPP hydrochloride] | 0.151
CC(C)(CO)Cc1cc(C(C)(C)C)c(O)c(C(C)(C)C)c1 | -0.0311
Cl/C(=C\n1cncn1)c1ccc(Cl)cc1Cl [Loreclezole hydrochloride] | -0.0404
O=C(c1ccc(OCCN2CCCCC2)cc1)c1c(-c2ccc(O)cc2)sc2cc(O)ccc12 [Raloxifene hydrochloride] | 0.00137
CCCN(CC1CC1)c1nc(C)nc(Nc2c(Cl)cc(Cl)cc2Cl)c1Cl | 0.264
O=C1N(c2ccccc2)c2ccccc2C1(Cc1ccncc1)Cc1ccncc1 [Linopirdine dihydrochloride] | -0.0416
CN1c2cc3c(cc2N=C(c2ccc(C(=O)O)cc2)c2ccccc21)C(C)(C)CCC3(C)C | -0.0837
O=S(=O)(c1cccc2cnccc12)N1CCCNCC1 [Fasudil hydrochloride] | -0.141
COC(=O)/C=C/c1cccc(N(Cc2ccc(-c3ccc(N(C)C)cc3)cc2)C(=O)C2CCCCC2)c1 [Fexaramine] | -0.0188

From the supplement of paper PMC7024190
